Measurements reported in patent US6946544.
These are yes or no findings as the source states them, for the method shown. In cells and extracts the contact can be indirect. Some binding calls cover weakened binding; strength is not graded here. Where a sequence is shown, tags or fusion partners need not be part of it. Values belong to the binder of their own block, whether it stands above or below them.

The chains behind the UniProt entries cited, without tags or fusion partners.
UniProt Q13490: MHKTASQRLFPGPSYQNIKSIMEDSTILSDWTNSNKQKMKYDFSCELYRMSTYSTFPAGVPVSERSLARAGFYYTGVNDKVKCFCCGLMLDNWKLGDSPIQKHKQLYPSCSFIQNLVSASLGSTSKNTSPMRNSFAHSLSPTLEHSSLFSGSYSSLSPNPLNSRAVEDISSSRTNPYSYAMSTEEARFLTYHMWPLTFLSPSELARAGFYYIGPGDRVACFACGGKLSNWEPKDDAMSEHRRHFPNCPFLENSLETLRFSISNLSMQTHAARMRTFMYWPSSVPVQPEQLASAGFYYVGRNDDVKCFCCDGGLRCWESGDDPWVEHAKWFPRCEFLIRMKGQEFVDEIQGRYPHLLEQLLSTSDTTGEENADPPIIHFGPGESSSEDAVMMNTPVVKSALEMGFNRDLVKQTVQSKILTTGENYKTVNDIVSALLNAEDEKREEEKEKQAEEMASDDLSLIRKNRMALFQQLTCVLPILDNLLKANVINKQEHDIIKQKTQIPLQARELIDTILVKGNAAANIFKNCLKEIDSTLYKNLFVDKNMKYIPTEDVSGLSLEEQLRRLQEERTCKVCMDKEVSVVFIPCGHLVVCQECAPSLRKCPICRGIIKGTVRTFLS

Legend:
[1] = biological target: myc-epitope tagged HIAP-2 (293T cell lysate) (human) (UniProt Q13490); experiment: GST pull-down from 293T lysates on GST-XAF-1 beads, Western blot with anti-c-myc 9E10; indirect interactions not excluded
[2] = biological target: T1, myc-epitope tagged TRAF2 (293T cell lysate) (UniProt Q12933); experiment: as above
T1 sequence (looked up): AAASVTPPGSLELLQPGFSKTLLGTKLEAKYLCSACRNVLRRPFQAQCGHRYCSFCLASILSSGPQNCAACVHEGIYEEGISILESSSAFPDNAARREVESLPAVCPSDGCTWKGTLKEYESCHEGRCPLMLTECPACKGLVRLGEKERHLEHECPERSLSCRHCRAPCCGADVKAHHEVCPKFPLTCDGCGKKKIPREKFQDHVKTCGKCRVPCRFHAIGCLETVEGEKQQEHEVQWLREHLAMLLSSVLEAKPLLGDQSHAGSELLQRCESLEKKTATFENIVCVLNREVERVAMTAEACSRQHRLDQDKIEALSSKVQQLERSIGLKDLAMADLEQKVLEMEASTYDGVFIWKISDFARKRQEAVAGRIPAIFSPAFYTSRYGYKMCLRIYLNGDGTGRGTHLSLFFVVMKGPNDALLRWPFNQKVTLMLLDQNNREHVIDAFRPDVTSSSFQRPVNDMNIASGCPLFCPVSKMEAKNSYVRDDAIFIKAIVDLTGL

[3] = biological target: T2, GST-XAF-1 fusion protein (Schistosoma japonicum; human) (UniProt Q6GPH4); experiment: pull-down of 35S-labeled in vitro translated protein on GST-XAF-1 beads, cell-free, SDS-PAGE and autoradiography
T2 sequence: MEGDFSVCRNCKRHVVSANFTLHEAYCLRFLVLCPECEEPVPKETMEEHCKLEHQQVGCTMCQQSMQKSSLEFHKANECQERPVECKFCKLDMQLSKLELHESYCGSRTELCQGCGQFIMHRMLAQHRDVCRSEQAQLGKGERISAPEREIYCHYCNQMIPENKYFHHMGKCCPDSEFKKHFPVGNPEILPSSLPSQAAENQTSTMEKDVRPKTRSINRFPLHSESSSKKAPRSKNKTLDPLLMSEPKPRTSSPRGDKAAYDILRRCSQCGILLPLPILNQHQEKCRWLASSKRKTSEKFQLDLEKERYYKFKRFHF

binding [1]: binds
binding [2]: binds
B1: GST-XAF-1 fusion protein (protein, not shown: a dimerising Fc or GST)
chain: T2 sequence

binding [3]: binds
B2: 35S-labeled in vitro translated TRAF2 (protein, UniProt Q12933 2-501, looked up, not shown: small tags and cut ends)
chain: T1 sequence (looked up)
modifications: 35S labeled methionine
